Source: publication PMC10238178
These are yes or no findings as the source states them, for the method shown. Binding seen in cells or lysates may run through a third protein. A result given as binding can be weak or reduced; the word gives no strength. One block for each molecule: values may come before it.

Assays:
[1] = target: T1, OTUD6B (endogenous, ESCC cells) (human (endogenous in KYSE30 and KYSE450)) (UniProt Q8N6M0); assay: co-IP; endogenous proteins in KYSE30 and KYSE450 cells; precipitated with anti-OTUD6B antibody or anti-β-TrCP antibody
T1 sequence: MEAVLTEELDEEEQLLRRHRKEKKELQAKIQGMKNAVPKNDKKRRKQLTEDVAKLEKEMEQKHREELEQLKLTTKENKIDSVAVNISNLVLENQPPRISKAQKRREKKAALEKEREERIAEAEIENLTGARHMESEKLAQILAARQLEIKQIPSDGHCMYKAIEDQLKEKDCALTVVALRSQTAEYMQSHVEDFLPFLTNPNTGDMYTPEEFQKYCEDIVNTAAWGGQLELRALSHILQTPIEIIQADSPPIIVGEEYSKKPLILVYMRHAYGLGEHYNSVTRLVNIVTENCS

Flag-β-TrCP = assay: co-IP; panel of DUBs (pcDNA3) each co-transfected with β-TrCP into HEK293T; which partner was precipitated is not stated

binding [1]: binds
Molecule: β-TrCP (endogenous, ESCC cells) (human (endogenous in KYSE30 and KYSE450))

binding (Flag-β-TrCP): binds
B1: VCPIP1 (transfected) (enzyme, UniProt Q96JH7 1-1222)
chain: MSQPPPPPPPLPPPPPPPEAPQTPSSLASAAASGGLLKRRDRRILSGSCPDPKCQARLFFPASGSVSIECTECGQRHEQQQLLGVEEVTDPDVVLHNLLRNALLGVTGAPKKNTELVKVMGLSNYHCKLLSPILARYGMDKQTGRAKLLRDMNQGELFDCALLGDRAFLIEPEHVNTVGYGKDRSGSLLYLHDTLEDIKRANKSQECLIPVHVDGDGHCLVHAVSRALVGRELFWHALRENLKQHFQQHLARYQALFHDFIDAAEWEDIINECDPLFVPPEGVPLGLRNIHIFGLANVLHRPIILLDSLSGMRSSGDYSATFLPGLIPAEKCTGKDGHLNKPICIAWSSSGRNHYIPLVGIKGAALPKLPMNLLPKAWGVPQDLIKKYIKLEEDGGCVIGGDRSLQDKYLLRLVAAMEEVFMDKHGIHPSLVADVHQYFYRRTGVIGVQPEEVTAAAKKAVMDNRLHKCLLCGALSELHVPPEWLAPGGKLYNLAKSTHGQLRTDKNYSFPLNNLVCSYDSVKDVLVPDYGMSNLTACNWCHGTSVRKVRGDGSIVYLDGDRTNSRSTGGKCGCGFKHFWDGKEYDNLPEAFPITLEWGGRVVRETVYWFQYESDSSLNSNVYDVAMKLVTKHFPGEFGSEILVQKVVHTILHQTAKKNPDDYTPVNIDGAHAQRVGDVQGQESESQLPTKIILTGQKTKTLHKEELNMSKTERTIQQNITEQASVMQKRKTEKLKQEQKGQPRTVSPSTIRDGPSSAPATPTKAPYSPTTSKEKKIRITTNDGRQSMVTLKSSTTFFELQESIAREFNIPPYLQCIRYGFPPKELMPPQAGMEKEPVPLQHGDRITIEILKSKAEGGQSAAAHSAHTVKQEDIAVTGKLSSKELQEQAEKEMYSLCLLATLMGEDVWSYAKGLPHMFQQGGVFYSIMKKTMGMADGKHCTFPHLPGKTFVYNASEDRLELCVDAAGHFPIGPDVEDLVKEAVSQVRAEATTRSRESSPSHGLLKLGSGGVVKKKSEQLHNVTAFQGKGHSLGTASGNPHLDPRARETSVVRKHNTGTDFSNSSTKTEPSVFTASSSNSELIRIAPGVVTMRDGRQLDPDLVEAQRKKLQEMVSSIQASMDRHLRDQSTEQSPSDLPQRKTEVVSSSAKSGSLQTGLPESFPLTGGTENLNTETTDGCVADALGAAFATRSKAQRGNSVEELEEMDSQDAEMTNTTEPMDHS

binding (Flag-β-TrCP): binds
B2: USP47 (transfected) (enzyme, UniProt Q96K76 1-1375)
chain: MVPGEENQLVPKEDVFWRCRQNIFDEMKKKFLQIENAAEEPRVLCIIQDTTNSKTVNERITLNLPASTPVRKLFEDVANKVGYINGTFDLVWGNGINTADMAPLDHTSDKSLLDANFEPGKKNFLHLTDKDGEQPQILLEDSSAGEDSVHDRFIGPLPREGSGGSTSDYVSQSYSYSSILNKSETGYVGLVNQAMTCYLNSLLQTLFMTPEFRNALYKWEFEESEEDPVTSIPYQLQRLFVLLQTSKKRAIETTDVTRSFGWDSSEAWQQHDVQELCRVMFDALEQKWKQTEQADLINELYQGKLKDYVRCLECGYEGWRIDTYLDIPLVIRPYGSSQAFASVEEALHAFIQPEILDGPNQYFCERCKKKCDARKGLRFLHFPYLLTLQLKRFDFDYTTMHRIKLNDRMTFPEELDMSTFIDVEDEKSPQTESCTDSGAENEGSCHSDQMSNDFSNDDGVDEGICLETNSGTEKISKSGLEKNSLIYELFSVMVHSGSAAGGHYYACIKSFSDEQWYSFNDQHVSRITQEDIKKTHGGSSGSRGYYSSAFASSTNAYMLIYRLKDPARNAKFLEVDEYPEHIKNLVQKERELEEQEKRQREIERNTCKIKLFCLHPTKQVMMENKLEVHKDKTLKEAVEMAYKMMDLEEVIPLDCCRLVKYDEFHDYLERSYEGEEDTPMGLLLGGVKSTYMFDLLLETRKPDQVFQSYKPGEVMVKVHVVDLKAESVAAPITVRAYLNQTVTEFKQLISKAIHLPAETMRIVLERCYNDLRLLSVSSKTLKAEGFFRSNKVFVESSETLDYQMAFADSHLWKLLDRHANTIRLFVLLPEQSPVSYSKRTAYQKAGGDSGNVDDDCERVKGPVGSLKSVEAILEESTEKLKSLSLQQQQDGDNGDSSKSTETSDFENIESPLNERDSSASVDNRELEQHIQTSDPENFQSEERSDSDVNNDRSTSSVDSDILSSSHSSDTLCNADNAQIPLANGLDSHSITSSRRTKANEGKKETWDTAEEDSGTDSEYDESGKSRGEMQYMYFKAEPYAADEGSGEGHKWLMVHVDKRITLAAFKQHLEPFVGVLSSHFKVFRVYASNQEFESVRLNETLSSFSDDNKITIRLGRALKKGEYRVKVYQLLVNEQEPCKFLLDAVFAKGMTVRQSKEELIPQLREQCGLELSIDRFRLRKKTWKNPGTVFLDYHIYEEDINISSNWEVFLEVLDGVEKMKSMSQLAVLSRRWKPSEMKLDPFQEVVLESSSVDELREKLSEISGIPLDDIEFAKGRGTFPCDISVLDIHQDLDWNPKVSTLNVWPLYICDDGAVIFYRDKTEELMELTDEQRNELMKKESSRLQKTGHRVTYSPRKEKALKIYLDGAPNKDLTQD
